Read-outs that look alike come from different tables or passages of the source. No constants are given. Whether binding was seen depends on the method and setting. Binding seen in cells or lysates may run through a third protein. A yes stands for co-enrichment or nearness to the bait. Other partners may have been found.
Assays:
[1] = target: BirA*-RAB18 (UniProt Q9NP72); test: proximity labelling
[2] = target: BirA*-RAB18 (UniProt Q9NP72); test: proximity labelling; remark: listed apart in the source

By UniProt entry, the sequences of proteins in these tests, tags left out.
UniProt Q9NP72, whole entry: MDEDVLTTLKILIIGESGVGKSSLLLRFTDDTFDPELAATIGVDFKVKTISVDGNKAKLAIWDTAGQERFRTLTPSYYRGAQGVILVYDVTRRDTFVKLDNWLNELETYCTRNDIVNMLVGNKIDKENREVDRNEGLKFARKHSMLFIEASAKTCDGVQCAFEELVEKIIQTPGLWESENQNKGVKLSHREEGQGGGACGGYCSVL

binding [1]: binds | binding [2]: binds
B1: STX18 (protein, UniProt Q9P2W9 1-335)
chain: MAVDITLLFRASVKTVKTRNKALGVAVGGGVDGSRDELFRRSPRPKGDFSSRAREVISHIGKLRDFLLEHRKDYINAYSHTMSEYGRMTDTERDQIDQDAQIFMRTCSEAIQQLRTEAHKEIHSQQVKEHRTAVLDFIEDYLKRVCKLYSEQRAIRVKRVVDKKRLSKLEPEPNTKTRESTSSEKVSQSPSKDSEENPATEERPEKILAETQPELGTWGDGKGEDELSPEEIQMFEQENQRLIGEMNSLFDEVRQIEGRVVEISRLQEIFTEKVLQQEAEIDSIHQLVVGATENIKEGNEDIREAIKNNAGFRVWILFFLVMCSFSLLFLDWYDS
